## Percent effect of library compounds

By UniProt entry, the sequences of proteins in these tests, tags left out. Residues count along the entry.
UniProt P9WPC5, whole entry: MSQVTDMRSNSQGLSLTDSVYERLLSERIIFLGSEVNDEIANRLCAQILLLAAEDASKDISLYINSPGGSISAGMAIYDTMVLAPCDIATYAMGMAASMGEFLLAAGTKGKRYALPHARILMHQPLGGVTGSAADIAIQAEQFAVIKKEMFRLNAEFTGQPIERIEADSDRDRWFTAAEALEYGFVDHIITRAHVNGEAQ
UniProt P9WPC3, whole entry partner: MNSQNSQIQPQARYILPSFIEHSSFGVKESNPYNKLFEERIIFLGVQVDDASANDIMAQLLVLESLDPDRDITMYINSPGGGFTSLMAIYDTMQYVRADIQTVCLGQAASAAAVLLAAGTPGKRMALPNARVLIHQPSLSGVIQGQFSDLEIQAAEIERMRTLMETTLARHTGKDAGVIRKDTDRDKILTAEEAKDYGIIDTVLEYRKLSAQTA
UniProt P9WNZ1, whole entry: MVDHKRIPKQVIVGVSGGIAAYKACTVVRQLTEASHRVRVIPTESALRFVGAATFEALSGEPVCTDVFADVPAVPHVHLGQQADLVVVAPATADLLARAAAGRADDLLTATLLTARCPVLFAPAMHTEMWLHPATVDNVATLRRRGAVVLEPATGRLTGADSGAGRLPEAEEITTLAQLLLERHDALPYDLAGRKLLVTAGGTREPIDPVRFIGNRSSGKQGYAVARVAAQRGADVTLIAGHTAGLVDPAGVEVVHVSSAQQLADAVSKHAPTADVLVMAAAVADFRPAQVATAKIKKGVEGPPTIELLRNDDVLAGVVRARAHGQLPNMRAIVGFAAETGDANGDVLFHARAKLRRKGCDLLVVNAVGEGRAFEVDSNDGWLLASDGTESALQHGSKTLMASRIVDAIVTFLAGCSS
UniProt Q8IDJ8, 1-583: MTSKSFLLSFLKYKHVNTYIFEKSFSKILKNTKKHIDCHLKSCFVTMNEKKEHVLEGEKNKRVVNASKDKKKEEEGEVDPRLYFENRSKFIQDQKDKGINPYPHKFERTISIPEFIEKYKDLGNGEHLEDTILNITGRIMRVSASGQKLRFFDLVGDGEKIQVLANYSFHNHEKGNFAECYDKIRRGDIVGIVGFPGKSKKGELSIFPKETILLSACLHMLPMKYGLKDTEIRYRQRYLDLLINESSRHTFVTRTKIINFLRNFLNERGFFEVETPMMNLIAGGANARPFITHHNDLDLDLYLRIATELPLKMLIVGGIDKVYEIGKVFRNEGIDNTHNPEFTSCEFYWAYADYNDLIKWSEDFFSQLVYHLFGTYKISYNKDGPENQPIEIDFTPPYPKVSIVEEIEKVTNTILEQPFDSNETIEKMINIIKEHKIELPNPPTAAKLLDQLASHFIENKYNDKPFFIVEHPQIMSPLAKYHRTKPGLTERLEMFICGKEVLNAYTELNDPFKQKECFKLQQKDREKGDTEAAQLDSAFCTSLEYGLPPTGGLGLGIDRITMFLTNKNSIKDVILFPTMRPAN

Data taken from ChEMBL document CHEMBL3988442, “University of Dundee, Small-Polar-MMV Screening Library” (2021).

ClpP1P2: 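ClpP1P2, Mycobacterium tuberculosis (UniProt P9WPC5 and UniProt P9WPC3). Protease assay of ClpP1P2, read by the AMC dye that it sets free. Concentration: 50 µM. Direction is inferred from only a few compounds that gave an IC50; most scored high, so higher reads as stronger inhibition. Most other retested compounds had strongly negative values. Size under these conditions: about 69,000 compounds, about 10 of them at 50% or above in at least one test.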
CoaBC: 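Coenzyme A biosynthesis protein CoaBC, Mycobacterium tuberculosis (UniProt P9WNZ1). Enzyme assay of CoaBC with a phosphate dye (Biomol Green) read at 650 nm. Tested at 30 µM. Direction is inferred from only a few compounds that gave an IC50; most scored high, so higher reads as stronger inhibition. Most strong results did not repeat in a second test. Size under these conditions: about 67,000 compounds, about 40 of them at 50% or above in at least one test.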
PfKRS1: 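Lysine-tRNA ligase, Plasmodium falciparum 3D7 (UniProt Q8IDJ8). Enzyme assay of the cytosolic lysyl-tRNA synthetase in 384-well plates, read by luminescence. Concentration: 30 µM. Direction is inferred from only a few compounds that gave an IC50; most scored high, so higher reads as stronger inhibition. Of about 69,000 compounds tested this way, about 49 (0.071%) reached 50% or more in at least one test.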
Leishmania in macrophages: 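Cell assay of Leishmania donovani living inside macrophages; the read-out is not stated. Concentration: 30 µM. Direction is inferred from retests: higher values go with stronger inhibition. Size under these conditions: about 69,000 compounds, about 1,000 of them at 50% or above in at least one test.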

Values are the deposited “Percent Effect”, in %. The controls that fix the scale are not given in the record; negative values are as filed. This is an unselected part of the compounds tested. Two or more numbers in one place are separate tests of the same structure; such repeats can differ widely.

For COCC(O)CN1CCC(=O)N(Cc2ccccc2)Cc2ccccc21 (centres unmarked) the result was ClpP1P2: -0.6045%; CoaBC: -3.148%; PfKRS1: 4.991%; Leishmania in macrophages: -11.82%.
For Cc1noc(C)c1CC(=O)Nc1ccn(CC(N)=O)n1 the result was ClpP1P2: 22.02%; CoaBC: 0.9709%; PfKRS1: 1.569%; Leishmania in macrophages: 18.01%.
For COCCN1CCCC1c1nccnc1Nc1nccs1 (centres unmarked) the result was ClpP1P2: -1.63%; CoaBC: 3.155%; PfKRS1: 3.412%; Leishmania in macrophages: 15.1% & 24.82%.
For CCCN(CCO)C(=O)C1CCC(=O)N(CCc2ccc(Cl)cc2)C1 (centres unmarked) the result was ClpP1P2: -1.696%; CoaBC: 9.283%; PfKRS1: 1.747%; Leishmania in macrophages: 26.18%.
For Cc1nc(CCNC(=O)C2CC(=O)N(C(C)C)C2)cs1 (centres unmarked) the result was ClpP1P2: 3.593%; CoaBC: 3.201%; PfKRS1: 0.8079%; Leishmania in macrophages: 16.92%.
For Cc1ccsc1C(=O)Nc1cnn(CC(=O)NC2CCCC2)c1 the result was ClpP1P2: 0.3871%; CoaBC: 0.6061%; PfKRS1: 0.8022%; Leishmania in macrophages: -8.73%.
For Cc1nc(C2CCCN2CCC(=O)N2CCc3ccccc32)no1 (centres unmarked) the result was ClpP1P2: -9.193%; CoaBC: 3.061%; PfKRS1: -0.2109%; Leishmania in macrophages: -28.03%.
For Cc1noc2nc(C3CCCN(Cc4ccncc4)C3)cc(C(F)F)c12 (centres unmarked) the result was ClpP1P2: 0.08879%; CoaBC: 2.941%; PfKRS1: 6.655%; Leishmania in macrophages: -4.033%.
For Fc1cnc(N2CCCn3c(nnc3Cn3cccn3)C2)nc1 the result was ClpP1P2: 2.261%; CoaBC: -5%; PfKRS1: 0.8183%; Leishmania in macrophages: -6.023%.
For O=C(O)C(F)(F)F.O=C(c1ccncn1)N1CCC[C@]2(C[C@H](Oc3ncccc3F)CO2)C1 the result was Leishmania in macrophages: -6.488%.
For Cc1n[nH]cc1C(=O)N1CCCC(c2cccc(-n3ccnc3)n2)C1 (centres unmarked) the result was ClpP1P2: -13.07%; CoaBC: 2.913%; PfKRS1: 3.094%; Leishmania in macrophages: -19.96% & -5.676%.
For CNC(=O)C1Cn2ccnc2C2(CCN(C(=O)c3ccoc3C)CC2)O1 (centres unmarked) the result was ClpP1P2: 0.5896%; CoaBC: 9.368%; PfKRS1: 3.189%.
For CNc1cc(C)nc(C2CN(Cc3ccc(C)nc3)CCO2)c1 (centres unmarked) the result was ClpP1P2: -4.753%; CoaBC: -2.778%; PfKRS1: 4.18%; Leishmania in macrophages: 24.18%.
For COc1ccccc1N1CCN(C(=O)CCn2ccc(C)n2)CC1(C)C the result was ClpP1P2: 0.9361%; CoaBC: -4.831%; PfKRS1: 8.618%; Leishmania in macrophages: 32.29%.
For Cc1cccc2cc(CN3CCCN4CCC[C@H]4C3)c(=O)[nH]c12 the result was ClpP1P2: -25.52%; CoaBC: 3.851%; PfKRS1: 5.208%.
For O=C(c1cscn1)N1CCc2c(COCC3CC3)cncc2C1 the result was ClpP1P2: 13.3%; CoaBC: 4.827%; PfKRS1: 3.924%.
For Cn1cc(Nc2cccc(C(=O)N(CC(N)=O)C3CCCC3)c2)cn1 the result was ClpP1P2: 0.7443%; CoaBC: 9.636%; PfKRS1: -0.5207%; Leishmania in macrophages: 17.82%.
For COc1ccc(N(CCC(N)=O)C(=O)CSc2ccc(Cl)cc2)cc1 the result was ClpP1P2: -0.8619%; CoaBC: 1.956%; PfKRS1: 1.804%; Leishmania in macrophages: 9.482%.
For [H][C@]12CC[C@]([H])(CN(Cc3[nH]cnc3C)C1)N(C(=O)c1cnn(C)c1)C2 the result was Leishmania in macrophages: 6.684%.
For CC[C@H](C)[C@H](NC(=O)Cn1ccc2ccc(F)cc21)C(=O)OC the result was ClpP1P2: -16.19%; CoaBC: -2.071%; PfKRS1: 3.387%; Leishmania in macrophages: 4.516%.

Repeated from the top, 2 entries:

{"compound": "COCC(O)CN1CCC(=O)N(Cc2ccccc2)Cc2ccccc21", "stereo": "centres unmarked", "ClpP1P2": -0.6045, "CoaBC": -3.148, "PfKRS1": 4.991, "Leishmania in macrophages": -11.82}
{"compound": "Cc1noc(C)c1CC(=O)Nc1ccn(CC(N)=O)n1", "ClpP1P2": 22.02, "CoaBC": 0.9709, "PfKRS1": 1.569, "Leishmania in macrophages": 18.01}